# Test results as given in patent US8618054B2 (Valorisation-Rechereche Société en Commandite, priority 2004, dated 2013).
# Experiment: general procedure: Fmoc solid-phase peptide synthesis
# Settings: whole synthesis, rp-HPLC, scale of the general procedure 0.1 mmol, dihydrochloride salt
substance,measurement,value
RY(HyVal)PELA,crude HPLC purity,≧90%
